Data taken from PubChem BioAssay AID493014 (National Center for Advancing Translational Sciences (NCATS), 2011).
The campaign covered roughly 340,000 compounds. About 170 (0.05%) were called active. This list was built around the results that the source calls inconclusive (neither active nor inactive); the mix of calls is not that of the screen. The call rests on the fitted dose curve; in most records, active means well fitted inhibition curve with a large enough effect in the signal ratio, with a control signal flat (not every such curve was filed as active); inconclusive means small, poorly fitted or top-dose-only effect, or effect the other way, or a change in a side signal; inactive means flat fitted curve, though single readings scatter; the % refers to the signal ratio. A potency beside an inconclusive call is a rough fit, not a confirmed value.
Potency means the concentration at half of the fitted maximal effect.

Assay: qHTS Assay to Find Inhibitors of Chronic Active B-Cell Receptor Signaling;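 on activity change, negative = inhibition: plate controls were basal doxycycline-induced cells for no effect and cells given 10 µM MG132 for full effect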
Settings: ABC-DLBCL IkBa-CBG/CBR reporter, luminescence ratio (green luciferase fused to IkBa over red control in TMD8 lymphoma cells), 4 h; activity change, negative = inhibition: at 46.1 µM (top of the series)
Summary of the method: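 Concentration-response series (up to 46 uM) were applied to TMD8 dual-reporter cells for 4 h at 37C with doxycycline. Green/red ratio, after filter-overlap correction, defined %Activity; red signal alone was normalised to basal cells and zero luminescence.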
In the case of `O=C(Nc1nc(-c2ccco2)c(-c2ccco2)s1)C1CC(=O)N(c2ccc3c(c2)OCCO3)C1` (stereo not given), the Potency is reported as inconclusive: 0.651 µM [rising, full curve, poor fit]. For `O=C(COc1ccc(-c2ccccc2)cc1)N/N=C/c1cccnc1`, the Potency was inconclusive: 22.4 µM [falling, single point]. With `N#Cc1ccc(/C=C(\C(=O)C(=O)O)c2ccc3ccccc3n2)cc1` the activity change, negative = inhibition was inconclusive: 5.92%. With `c1ccc(Nc2cccc3ccccc23)cc1` the activity change, negative = inhibition was inconclusive: 8.66%. For `CN(C)c1ccnc2sc3c(SCc4ccc(Cl)cc4)ncnc3c12`, the “activity change, negative = inhibition” value was inactive: -2.42%. For `C#CCOCCOCCOCCNc1nc(N2CCN(C(=O)[C@H]([C@@H](C)CC)n3cc([C@@H](N)CC(C)C)nn3)CC2)nc(N2CCN(C(=O)[C@H](Cc3ccc(O)cc3)n3cc([C@@H](N)CC(C)C)nn3)CC2)n1`, the “activity change, negative = inhibition” value was inactive: -2.81%. In the case of `CC(=O)c1c[nH]c2ccc(C)cc2c1=O`, the activity change, negative = inhibition is reported as inconclusive: 9.44%. For `O=C(NCc1cccc(Cl)c1)c1cc(=O)[nH]c2ccccc12`, the activity change, negative = inhibition was inconclusive: 10.1%. With `CCN1C(=O)/C(=C/C=C2/CCCN2C)OC1=S` the activity change, negative = inhibition was inconclusive: 6.05%. In the case of `COc1cccc(N2CCN(CC(=O)NC(C)c3ccccc3)CC2)c1` (stereo not given), the activity change, negative = inhibition is reported as inconclusive: 6.83%. With `O=C(CN(c1ccc2c(c1)OCCO2)S(=O)(=O)c1ccccc1)N1CCN(Cc2ccccc2)CC1` the activity change, negative = inhibition was inconclusive: 5.26%. With `CCN1C=C(C(=O)OC)C(c2cccc(OC)c2OC)C(C(=O)OC)=C1` the “activity change, negative = inhibition” value was inactive: -7.05%. With `CC(C)Nc1nc(SCC(N)=O)nc(N2CCOCC2)n1` the Potency was inconclusive: 18.4 µM [falling, partial curve, poor fit]. For `COc1cccc2c(=O)n(CC(=O)NCCc3ccccc3)ccc12`, the activity change, negative = inhibition was inconclusive: -18.8%. For `C/C(=N\NC(=O)COc1ccc(C)cc1[N+](=O)[O-])c1cccs1`, the activity change, negative = inhibition was inconclusive: 10.4%. For `COc1c(C(=O)Nc2nnc(C3CC3)s2)csc1Cl`, the activity change, negative = inhibition was inconclusive: 6.93%. For `CCc1cccc2c(C(=O)CN3C(=O)NC(C)(c4cccc5ccccc45)C3=O)c[nH]c12` (stereo not given), the activity change, negative = inhibition was inconclusive: 11.3%. With `CC(=O)Nc1ccc(C(=O)OC2CCCCC2=O)cc1` (stereo not given) the activity change, negative = inhibition was inconclusive: 17.5%. In the case of `Cc1ccccc1CN(C)C1CCN(C)CC1`, the “activity change, negative = inhibition” value is reported as inactive: -2.65%. In the case of `CSc1nc(N)nc2c1ncn2CC(=O)NCCCc1ccccc1`, the “activity change, negative = inhibition” value is reported as inactive: 0.467%. For `Cc1c(C)c2ccc(OC3CCCCC3=O)cc2oc1=O` (stereo not given), the activity change, negative = inhibition was inconclusive: 2.28%. In the case of `COc1cc(C(=O)NNC(=S)NC(=O)c2ccc(F)cc2)cc(OC)c1OC`, the activity change, negative = inhibition is reported as inconclusive: -18%. For `O=C(Nc1ccon1)c1nc[nH]c1C(=O)N1CCc2ccccc2C1`, the Potency was inconclusive: 0.184 µM [rising, full curve, poor fit]. In the case of `COCCn1cnc2c1c(=O)n(CC(=O)NC(=O)NC(C)(C)C)c(=O)n2Cc1ccccc1`, the “activity change, negative = inhibition” value is reported as inactive: 4.29%. With `Cc1ccc(C(=O)/C=C/Nc2cccc(O)c2)cc1` the Potency was inconclusive: 29.1 µM [falling, single point]. For `C#CCOCCOCCOCCNc1nc(N2CCN(C(=O)[C@H]([C@@H](C)CC)n3cc([C@@H](N)CC(C)C)nn3)CC2)nc(N2CCN(C(=O)[C@H]([C@@H](C)CC)n3cc([C@@H](N)CC(C)C)nn3)CC2)n1`, the “activity change, negative = inhibition” value was inactive: 13.2%. In the case of `Cc1ccc(S(=O)(=O)c2nc(C)c3c(n2)CCC3)cc1`, the activity change, negative = inhibition is reported as inconclusive: 9.08%. For `CCN1CCN(C(=O)c2sc3ncnc(N4CCc5ccccc5C4)c3c2C)CC1`, the “activity change, negative = inhibition” value was inactive: -20.4%. With `COc1cccc(NC(=O)N(CCCN2CCOCC2)C(C)c2cc3cccc(OC)c3o2)c1` (stereo not given) the “activity change, negative = inhibition” value was inactive: -10.8%. For `C[C@H](NC(=O)c1[nH]cnc1C(=O)Nc1ccccc1)c1ccccc1`, the Potency was inconclusive: 8.2 µM [activator, partial curve, poor fit]. With `C=CC[C@@H](Cc1ccc(F)cc1)C(=O)OC[C@H]1CCCN1C(=O)[C@@H](CC=C)CC(=O)N(CCO)Cc1ccccc1` the activity change, negative = inhibition was inconclusive: -9.29%. For `Cc1cc(C(F)(F)F)n2nc(-c3cnn(C)c3C(F)(F)F)c(Cl)c2n1`, the activity change, negative = inhibition was inconclusive: 3.35%. With `CCN1CCN(c2cc(C)c3cc(NC(=S)N(CC)CC)ccc3n2)CC1` the Potency was inconclusive: 7.08 µM [falling, partial curve, poor fit]. With `Clc1ccsc1-c1ccc2ccccc2n1` the Potency was inconclusive: 14.6 µM [rising, partial curve, poor fit]. In the case of `Cc1[nH]c2ccccc2c1C(c1ccncc1)N1CCN(c2ccccc2F)CC1` (stereo not given), the activity change, negative = inhibition is reported as inconclusive: 0.331%. With `O=C(Nc1ccc2nc(N3CCOCC3)sc2c1)c1ccccc1` the Potency was inconclusive: 20.6 µM [falling, single point]. With `NC(=O)c1cc2ccccc2o/c1=N\NC(=O)c1ccc(F)cc1` the activity change, negative = inhibition was inconclusive: 2.52%. For `COC(=O)CNC(=O)CCC(=O)N1CCN(C(c2ccccc2)c2ccccc2)CC1`, the activity change, negative = inhibition was inconclusive: 1.62%. For `COc1ccc(CN2C(=O)Cc3c2nc(N)c2c(N)nc(N4CCOCC4)c(C#N)c32)cc1`, the “activity change, negative = inhibition” value was inactive: -5.02%. In the case of `COc1ccc(CCNc2ccncn2)cc1OC`, the activity change, negative = inhibition is reported as inconclusive: -15.5%. In the case of `CCNC(=S)N1CCC(n2cnc3ccccc32)CC1`, the “activity change, negative = inhibition” value is reported as inactive: 3.76%. For `C[C@H](CO)N1C[C@H](C)[C@@H](CN(C)Cc2ccc(Cl)c(Cl)c2)Oc2c(NC(=O)Cc3ccccc3)cccc2C1=O`, the activity change, negative = inhibition was inconclusive: 7.6%. For `CN1CCN(S(=O)(=O)c2cccc(S(=O)(=O)c3ccc(Cl)c(Cl)c3)c2)CC1`, the “activity change, negative = inhibition” value was inactive: 3.39%. With `O=C(CN1CCN(S(=O)(=O)c2ccc(Cl)c(Cl)c2)CC1)N1CCCC1` the activity change, negative = inhibition was inconclusive: -0.896%. With `O=C(Nc1cc(Cl)ccc1N1CCOCC1)c1ccc(Br)o1` the activity change, negative = inhibition was inconclusive: 0.118%. For `COc1ccc(C(CNC(=O)C(=O)Nc2ccc3c(c2)OCCO3)N2CCN(C)CC2)cc1` (stereo not given), the “activity change, negative = inhibition” value was inactive: 1.68%. For `Oc1ccc(Cl)cc1CNCc1ccc(F)c(F)c1`, the activity change, negative = inhibition was inconclusive: 2.18%. In the case of `O=C(N/N=C/c1ccco1)c1cc(-c2ccc3ccccc3c2)n[nH]1`, the Potency is reported as inconclusive: 4.11 µM [rising, partial curve]. In the case of `COc1cc(Cl)ccc1OCc1cc(C(=O)N2C[C@H]3CC[C@H]2C3)no1`, the “activity change, negative = inhibition” value is reported as inactive: 0.0176%. With `CCOc1ccc2nc(NC(=O)C3CCN(S(=O)(=O)c4cnc[nH]4)CC3)sc2c1` the “activity change, negative = inhibition” value was inactive: -19%.
